Source: paper PMC4932475, “Evaluation of P-Glycoprotein Inhibitory Potential Using a Rhodamine 123 Accumulation Assay” (Pharmaceutics, 2016)
Values joined by “and” are separate entries in the source; they are usually repeats but may differ in a detail not shown here. Equal entries are not always repeated.

Chains of the proteins cited; added tags and fusions are not shown.
UniProt P08183, whole entry: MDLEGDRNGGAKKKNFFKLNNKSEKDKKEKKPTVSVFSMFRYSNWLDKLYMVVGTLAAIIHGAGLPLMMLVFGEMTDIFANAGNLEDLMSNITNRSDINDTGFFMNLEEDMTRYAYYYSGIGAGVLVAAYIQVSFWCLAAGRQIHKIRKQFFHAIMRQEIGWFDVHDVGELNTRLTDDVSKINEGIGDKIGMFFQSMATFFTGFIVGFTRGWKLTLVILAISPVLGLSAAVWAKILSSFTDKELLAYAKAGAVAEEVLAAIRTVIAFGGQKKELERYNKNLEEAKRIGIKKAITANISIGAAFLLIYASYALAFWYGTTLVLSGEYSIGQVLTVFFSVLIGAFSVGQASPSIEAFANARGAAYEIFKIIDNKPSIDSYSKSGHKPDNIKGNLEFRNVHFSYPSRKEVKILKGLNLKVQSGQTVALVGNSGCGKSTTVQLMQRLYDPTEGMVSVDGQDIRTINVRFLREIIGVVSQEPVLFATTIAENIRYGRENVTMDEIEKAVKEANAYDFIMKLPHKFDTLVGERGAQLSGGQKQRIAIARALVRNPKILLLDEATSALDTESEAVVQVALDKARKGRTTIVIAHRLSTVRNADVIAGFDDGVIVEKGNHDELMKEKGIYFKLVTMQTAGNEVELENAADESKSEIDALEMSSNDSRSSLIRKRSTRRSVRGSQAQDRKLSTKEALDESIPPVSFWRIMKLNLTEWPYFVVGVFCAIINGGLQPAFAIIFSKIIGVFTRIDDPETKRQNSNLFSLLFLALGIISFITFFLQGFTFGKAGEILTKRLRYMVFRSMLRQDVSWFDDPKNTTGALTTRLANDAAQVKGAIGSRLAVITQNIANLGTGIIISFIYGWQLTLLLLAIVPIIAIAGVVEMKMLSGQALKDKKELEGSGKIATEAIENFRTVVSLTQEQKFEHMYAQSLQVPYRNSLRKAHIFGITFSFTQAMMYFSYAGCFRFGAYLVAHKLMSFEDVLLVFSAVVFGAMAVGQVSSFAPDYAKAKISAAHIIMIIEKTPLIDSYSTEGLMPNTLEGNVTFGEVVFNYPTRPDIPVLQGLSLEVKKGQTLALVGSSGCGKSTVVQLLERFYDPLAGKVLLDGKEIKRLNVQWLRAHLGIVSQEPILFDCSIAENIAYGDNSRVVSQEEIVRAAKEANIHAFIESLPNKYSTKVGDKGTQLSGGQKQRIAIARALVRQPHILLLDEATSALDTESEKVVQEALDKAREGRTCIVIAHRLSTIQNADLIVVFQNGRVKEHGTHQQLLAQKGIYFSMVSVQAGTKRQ

Columns and labels:
P-gp [1] = molecular target: T1, P-gp (Homo sapiens, UniProt P08183); settings: outcome versus clinic in brackets (TP, FP, TN, FN)
P-gp [2] = system: P-gp; parameters: method as in Poirier et al. [41]; settings: digoxin efflux ratio, MDR1-transfected cells; ref Poirier et al. [41]; cited from earlier work
P-gp [3] = molecular target: T1, P-gp; settings: perpetrator in clinical digoxin DDI study; ref Poirier et al. [41]; cited from earlier work

- P-gp Inhibition Prediction (FDA Criteria) Digoxin IC50 (P-gp [1]; IC50 from digoxin bidirectional transport assay of Poirier et al. [41]): + (TP)
- P-gp Inhibition Prediction (FDA Criteria) Rhodamine 123 IC50 (P-gp [1]; IC50 from rhodamine 123 assay): + (TP) ^9
Structure (SMILES): CCCCc1oc2ccccc2c1C(=O)c1cc(I)c(OCCN(CC)CC)c(I)c1 [Amiodarone, amiodarone]
- IC50 (P-gp [2]): 9.6 µM
- [I1] total plasma concentration (P-gp [3]): 2.49 µM and 2.20 µM
